Results published in publication PMC5458259.
These are yes or no findings as the source states them, for the method shown. Binding seen in cells or lysates may run through a third protein. Some entries that bind do so weakly or less than the wild type.

Protein sequences, listed by entry. Tags and fused reporters are not part of them.
UniProt P49789: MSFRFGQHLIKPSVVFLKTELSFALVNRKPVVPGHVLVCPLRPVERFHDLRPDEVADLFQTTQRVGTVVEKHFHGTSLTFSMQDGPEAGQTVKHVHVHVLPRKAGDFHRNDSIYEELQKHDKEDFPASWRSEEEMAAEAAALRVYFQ

T1: 14-3-3τ protein (human (endogenous in H460)) (UniProt P27348)
T1 sequence: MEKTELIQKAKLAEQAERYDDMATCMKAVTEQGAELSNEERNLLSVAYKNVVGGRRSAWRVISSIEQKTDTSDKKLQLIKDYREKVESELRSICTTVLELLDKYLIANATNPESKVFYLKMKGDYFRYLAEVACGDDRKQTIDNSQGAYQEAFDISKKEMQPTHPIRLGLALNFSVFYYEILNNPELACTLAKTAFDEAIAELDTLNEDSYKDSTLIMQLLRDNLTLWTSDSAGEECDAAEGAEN


Experiments:
[1] = target: T1, 14-3-3τ protein (human (endogenous in H460)); experiment: co-IP; lysate (500 μg) of H460 cells transduced with Ad-Fhit, precleared with protein A-agarose; 3 μg anti-FLAG or anti-14-3-3τ antibody at 4°C overnight, protein A-agarose beads, five washes in lysis buffer, immunoblotting; both directions
[2] = target: FLAG-tagged Fhit protein (fragile histidine triad) (human) (UniProt P49789); experiment: as above

| binding [1] | binding [2] | Molecule |
| --- | --- | --- |
| binds | – | FLAG-tagged Fhit protein (fragile histidine triad) (from UniProt P49789 1-147) |
| – | binds | 14-3-3τ protein (protein, UniProt P27348 1-245) MEKTELIQKAKLAEQAERYDDMATCMKAVTEQGAELSNEERNLLSVAYKNVVGGRRSAWRVISSIEQKTDTSDKKLQLIKDYREKVESELRSICTTVLELLDKYLIANATNPESKVFYLKMKGDYFRYLAEVACGDDRKQTIDNSQGAYQEAFDISKKEMQPTHPIRLGLALNFSVFYYEILNNPELACTLAKTAFDEAIAELDTLNEDSYKDSTLIMQLLRDNLTLWTSDSAGEECDAAEGAEN |
